Measured values as given in the supplement of paper PMC10331698.
± gives the standard deviation of the averaged measurements. Most values lie at the level of the controls, where differences are scatter.

How the values were obtained:
Test in all cases: level (log10 ratio to DMSO vehicle control); higher = higher biomarker level / cell amount than vehicle control
[1] = compound: NC(=O)C(F)(F)C(F)(F)F [Pentafluoropropionamide]; conditions: 2200 nM; in DMSO
Method: (§1)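 BioMAP Diversity Plus panel of 12 human primary cell co-culture systems (3C, 4H, LPS, SAg, BT, BF4T, BE3C, CASM3C, HDF3CGF, KF3CT, MyoF, Mphg). Compounds were added 1 h before stimulation and left for 24 h (MyoF 48 h; BT 72 h for soluble read-outs or 6 d for IgG). Biomarkers were read by ELISA, cytotoxicity by SRB, PBMC viability and proliferation by Alamar Blue. Each well value was divided by the mean of 8 DMSO control wells on the same plate and log10 transformed; duplicate blinded samples were tested at 4 concentrations.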

[2] = compound: CO[Si](C)(CCC(F)(F)C(F)(F)C(F)(F)C(F)(F)C(F)(F)C(F)(F)F)OC [Dimethoxymethyl((perfluorohexyl)ethyl)silane]; conditions: in DMSO
Method: as §1

[3] = compound: O=S(=O)(OCC(F)(F)F)C(F)(F)C(F)(F)C(F)(F)C(F)(F)F [2,2,2-Trifluoroethyl perfluorobutanesulfonate]; conditions: 2200 nM; in DMSO
Method: as §1

[4] = compound: O=S(=O)(F)C(F)(F)C(F)(F)C(F)(F)C(F)(F)C(F)(F)C(F)(F)C(F)(F)C(F)(F)F [Perfluorooctanesulfonyl fluoride]; conditions: 2200 nM; in DMSO
Method: as §1

[5] = compound: C=CC(F)(F)C(F)(F)C(F)(F)C(F)(F)C(F)(F)C(F)(F)C(F)(F)C(F)(F)C=C [1,8-Divinylperfluorooctane]; conditions: in DMSO
Method: as §1

[6] = compound: FC(F)(F)C(F)(F)C(F)(F)CI [Heptafluorobutyl iodide]; conditions: 2200 nM; in DMSO
Method: as §1

[7] = compound: O=P(O)(O)CCC(F)(F)C(F)(F)C(F)(F)C(F)(F)C(F)(F)C(F)(F)F [2-(Perfluorohexyl)ethylphosphonic acid]; conditions: 2200 nM; in DMSO
Method: as §1

[8] = compound: FC(F)(F)C(F)(F)C(F)(F)CC1CO1 [1H,1H-Heptafluorobutyl epoxide]; conditions: 2200 nM; in DMSO
Method: as §1

[9] = compound: O=S(=O)(O)C(F)(F)C(F)(F)C(F)(F)C(F)(F)C(F)(F)C(F)(F)C(F)(F)C(F)(F)F [Perfluorooctanesulfonic acid]; conditions: 2200 nM; in DMSO
Method: as §1

[10] = compound: O=S(=O)(O)C(F)(F)C(F)(F)C(F)(F)C(F)(F)C(F)(F)C(F)(F)C(F)(F)C(F)(F)F [Potassium perfluorooctanesulfonate]; conditions: 2200 nM; in DMSO
Method: as §1

[11] = compound: COC(=O)C(F)(F)C(F)(F)OC(F)(C(F)(F)F)C(F)(F)OC(F)=C(F)F [Methyl perfluoro(3-(1-ethenyloxypropan-2-yloxy)propanoate)]; conditions: in DMSO
Method: as §1

[12] = compound: C=C(C)C(=O)OCC(F)(F)C(F)(F)C(F)(F)C(F)(F)C(F)(F)C(F)(F)C(F)(F)F; conditions: in DMSO
Method: as §1

[13] = compound: NC(=O)C(F)(F)C(F)(F)C(F)(F)C(F)F; conditions: in DMSO
Method: as §1

[14] = compound: O=C(O)C(F)(F)C(F)(F)C(F)F [4H-Perfluorobutanoic acid]; conditions: in DMSO
Method: as §1

[15] = compound: OCC(F)(F)C(F)(F)C(F)(F)C(F)(F)C(F)(F)C(F)F [1H,1H,7H-Dodecafluoro-1-heptanol]; conditions: 2200 nM; in DMSO
Method: as §1

[16] = compound: OCCCCC(F)(F)C(F)(F)C(F)(F)C(F)(F)F [4:4 Fluorotelomer alcohol]; conditions: 2200 nM; in DMSO
Method: as §1

[17] = compound: C=CC(=O)OCC(F)(F)C(F)(F)C(F)(F)C(F)(F)C(F)(F)C(F)(F)C(F)(F)F [1H,1H-Perfluorooctyl acrylate]; conditions: 2200 nM; in DMSO
Method: as §1

[18] = compound: NS(=O)(=O)C(F)(F)C(F)(F)C(F)(F)C(F)(F)C(F)(F)C(F)(F)C(F)(F)C(F)(F)F [Perfluorooctanesulfonamide]; conditions: in DMSO
Method: as §1

| Test System | level (log10) [1] | level (log10) ([2]; 740 nM) | level (log10) ([2]; 2200 nM) | level (log10) [3] | level (log10) [4] | level (log10) ([5]; 740 nM) | level (log10) ([5]; 2200 nM) | level (log10) [6] | level (log10) [7] | level (log10) [8] | level (log10) [9] | level (log10) [10] | level (log10) ([11]; 740 nM) | level (log10) ([11]; 2200 nM) | level (log10) ([12]; 740 nM) | level (log10) ([12]; 2200 nM) | level (log10) ([13]; 2200 nM) | level (log10) ([13]; 6700 nM) | level (log10) ([13]; 20000 nM) | level (log10) ([13]; 60000 nM) | level (log10) ([14]; 2200 nM) | level (log10) ([14]; 6700 nM) | level (log10) ([14]; 20000 nM) | level (log10) ([14]; 60000 nM) | level (log10) [15] | level (log10) [16] | level (log10) [17] | level (log10) ([18]; 2200 nM) | level (log10) ([18]; 6700 nM) | level (log10) ([18]; 20000 nM) |
| --- | --- | --- | --- | --- | --- | --- | --- | --- | --- | --- | --- | --- | --- | --- | --- | --- | --- | --- | --- | --- | --- | --- | --- | --- | --- | --- | --- | --- | --- | --- |
| LPS:CD40 | -0.0335 ± 0.0092 | -0.025 ± 0.013 | -0.0095 ± 0.029 | -0.011 ± 0.045 | -0.133 ± 0.38 | 0.0055 ± 0.023 | -0.0005 ± 0.013 | -0.018 ± 0.037 | -0.0195 ± 0.028 | 0.017 ± 0.011 | -0.0085 ± 0.035 | -0.056 ± 0.041 | 0.05 ± 0.0071 | 0.0425 ± 0.0092 | 0.005 ± 0.0028 | -0.0045 ± 0.0035 | -0.013 ± 0.088 | -0.0125 ± 0.029 | -0.0045 ± 0.018 | -0.03 ± 0.017 | 0.009 ± 0.013 | -0.0365 ± 0.022 | -0.0355 ± 0.021 | 0.015 ± 0.031 | 0.0005 ± 0.0064 | -0.0025 ± 0.012 | 0.0455 ± 0.12 | -0.0565 ± 0.0021 | -0.0635 ± 0.018 | -0.115 ± 0.0042 |
| LPS:M-CSF | 0.012 ± 0.037 | -0.0105 ± 0.053 | -0.0265 ± 0.0035 | -0.0065 ± 0.03 | 0 ± 0.0085 | 0.0185 ± 0.05 | -0.0015 ± 0.042 | -0.0115 ± 0.0021 | -0.016 ± 0.12 | 0.0305 ± 0.044 | 0.003 ± 0.041 | -0.0165 ± 0.023 | 0.0145 ± 0.042 | -0.002 ± 0.0085 | 0.0035 ± 0.021 | -0.0045 ± 0.016 | 0.0095 ± 0.0064 | -0.013 ± 0.028 | -0.011 ± 0.0014 | 0.0065 ± 0.023 | 0.027 ± 0.0042 | -0.001 ± 0.042 | -0.007 ± 0.014 | -0.003 ± 0.035 | 0.0025 ± 0.016 | 0.0015 ± 0.0078 | -0.0085 ± 0.016 | 0.0345 ± 0.0064 | -0.0035 ± 0.032 | 0.05 ± 0.04 |
| lMphg:M-CSF | 0.014 ± 0.035 | -0.0115 ± 0.016 | -0.0055 ± 0.0021 | 0.032 ± 0.011 | 0.014 ± 0.0057 | 0.0185 ± 0.046 | -0.014 ± 0.0099 | 0.006 ± 0.018 | 0.009 ± 0.038 | 0.01 ± 0.014 | 0.002 ± 0.0085 | 0.012 ± 0.028 | 0.0025 ± 0.035 | -0.0015 ± 0.042 | 0.008 ± 0.058 | -0.009 ± 0.017 | -0.002 ± 0.021 | -0.0135 ± 0.0092 | -0.018 ± 0.025 | -0.0175 ± 0.015 | -0.0165 ± 0.019 | -0.0115 ± 0.005 | -0.015 ± 0.0028 | -0.0175 ± 0.0064 | 0.019 ± 0.016 | -0.002 ± 0.04 | -0.003 ± 0.014 | 0.0035 ± 0.013 | -0.0445 ± 0.0092 | -0.029 ± 0.021 |
| BE3C:uPA | -0.0095 ± 0.0078 | 0.005 ± 0.027 | 0.007 ± 0.011 | 0.005 ± 0.017 | 0.002 ± 0.0057 | -0.0105 ± 0.00071 | -0.0135 ± 0.011 | -0.0055 ± 0.018 | 0.0055 ± 0.023 | -0.0115 ± 0.0078 | -0.0005 ± 0.0092 | 0.006 ± 0.0071 | -0.009 ± 0.016 | -0.0195 ± 0.00071 | -0.002 ± 0.011 | -0.0075 ± 0.019 | -0.0015 ± 0.005 | -0.01 ± 0.0057 | -0.013 ± 0.0085 | -0.0045 ± 0.013 | -0.0235 ± 0.049 | -0.016 ± 0.05 | -0.009 ± 0.016 | 0.0055 ± 0.06 | -0.008 ± 0.011 | 0.0015 ± 0.018 | -0.008 ± 0.0028 | -0.004 ± 0.0085 | -0.0065 ± 0.013 | 0.0145 ± 0.0064 |
